Measurements reported in article PMC9010173.
No constants are given. Whether binding was seen depends on the method and setting. In cells and extracts the contact can be indirect. For part of these data: A result given as binding can be weak or reduced; the word gives no strength.

Columns and labels:
Test in all cases: co-IP; cell lysates immunoprecipitated by IgG or anti-NEIL1, NEIL2, MUTYH, APE1 and LIG3 antibodies, then immunoblotted with anti-Sirt3 antibody
[1] = molecular target: T1, DNA ligase 3 (LIG3) (human (endogenous in HT-29)) (UniProt P49916)
T1 sequence: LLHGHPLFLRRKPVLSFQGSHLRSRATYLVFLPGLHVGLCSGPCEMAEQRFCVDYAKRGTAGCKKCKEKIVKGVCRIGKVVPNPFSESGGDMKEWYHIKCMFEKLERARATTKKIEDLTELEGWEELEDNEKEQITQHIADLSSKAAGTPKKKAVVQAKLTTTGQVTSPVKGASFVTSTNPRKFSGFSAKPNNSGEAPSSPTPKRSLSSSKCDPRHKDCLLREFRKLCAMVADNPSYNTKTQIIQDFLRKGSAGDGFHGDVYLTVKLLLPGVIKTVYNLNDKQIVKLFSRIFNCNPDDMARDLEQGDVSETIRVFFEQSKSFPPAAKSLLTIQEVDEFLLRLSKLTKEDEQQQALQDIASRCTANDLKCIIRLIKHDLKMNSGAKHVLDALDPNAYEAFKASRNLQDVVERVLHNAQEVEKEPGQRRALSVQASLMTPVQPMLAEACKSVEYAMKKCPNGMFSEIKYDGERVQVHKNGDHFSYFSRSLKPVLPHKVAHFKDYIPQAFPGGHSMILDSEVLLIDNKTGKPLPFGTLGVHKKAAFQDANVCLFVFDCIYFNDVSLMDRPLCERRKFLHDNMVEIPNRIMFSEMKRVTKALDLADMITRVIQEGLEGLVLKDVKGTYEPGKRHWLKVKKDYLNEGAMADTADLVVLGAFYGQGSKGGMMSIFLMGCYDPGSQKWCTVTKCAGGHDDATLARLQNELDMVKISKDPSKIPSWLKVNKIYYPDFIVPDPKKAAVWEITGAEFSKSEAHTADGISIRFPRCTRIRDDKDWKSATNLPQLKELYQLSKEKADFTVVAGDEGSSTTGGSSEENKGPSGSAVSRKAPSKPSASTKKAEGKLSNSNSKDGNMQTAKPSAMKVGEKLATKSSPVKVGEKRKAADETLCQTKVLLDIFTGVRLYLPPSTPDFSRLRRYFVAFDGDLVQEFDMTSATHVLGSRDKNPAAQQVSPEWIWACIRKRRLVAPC

[2] = molecular target: T2, Endonuclease VIII-like 2 (NEIL2) (human (endogenous in HT-29)) (UniProt Q969S2)
T2 sequence: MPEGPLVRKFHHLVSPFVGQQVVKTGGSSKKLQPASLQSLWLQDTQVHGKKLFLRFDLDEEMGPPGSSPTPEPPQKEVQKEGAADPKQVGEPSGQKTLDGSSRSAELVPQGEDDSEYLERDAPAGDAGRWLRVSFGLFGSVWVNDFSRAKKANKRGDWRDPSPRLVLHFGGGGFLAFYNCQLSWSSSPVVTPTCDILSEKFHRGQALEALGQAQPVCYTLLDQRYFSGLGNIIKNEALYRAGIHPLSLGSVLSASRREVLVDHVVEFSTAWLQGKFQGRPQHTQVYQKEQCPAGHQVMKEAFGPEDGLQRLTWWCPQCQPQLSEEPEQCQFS

[3] = molecular target: T3, mutY DNA glycosylase (MUTYH) (human (endogenous in HT-29)) (UniProt Q9UIF7)
T3 sequence: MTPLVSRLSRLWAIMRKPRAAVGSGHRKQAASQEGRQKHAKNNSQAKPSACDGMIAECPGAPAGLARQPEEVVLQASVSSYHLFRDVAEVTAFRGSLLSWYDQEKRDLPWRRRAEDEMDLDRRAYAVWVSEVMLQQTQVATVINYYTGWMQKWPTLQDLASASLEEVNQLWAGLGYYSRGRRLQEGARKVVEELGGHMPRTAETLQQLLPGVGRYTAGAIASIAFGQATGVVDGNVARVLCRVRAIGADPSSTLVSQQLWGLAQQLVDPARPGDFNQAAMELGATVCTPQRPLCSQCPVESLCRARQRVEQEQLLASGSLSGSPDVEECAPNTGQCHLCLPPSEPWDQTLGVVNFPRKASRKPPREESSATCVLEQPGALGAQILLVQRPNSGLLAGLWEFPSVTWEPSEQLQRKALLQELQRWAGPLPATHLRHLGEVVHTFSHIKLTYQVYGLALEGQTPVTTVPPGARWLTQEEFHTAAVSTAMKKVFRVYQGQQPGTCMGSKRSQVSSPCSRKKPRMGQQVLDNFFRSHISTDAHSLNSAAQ

binding [1]: no binding | binding [2]: no binding | binding [3]: binds
Substance: Sirt3 (human (endogenous in HT-29)) (enzyme)
